In PubChem BioAssay AID485314 (National Center for Advancing Translational Sciences (NCATS), 2010):
Out of some 340,000 compounds screened, about 4,500 (1.3%) were called active. The shares of active, inactive and inconclusive entries below differ from those in the screen. Calls follow the shape of the dose curve; as a rule, active = well fitted inhibition curve with a large enough effect; inconclusive = small, poorly fitted or top-dose-only effect, or another doubt; inactive = no such curve, though single readings can be large or run the other way. A potency beside an inconclusive call is a rough fit, not a confirmed value.

molecular target: DNA polymerase beta (Homo sapiens) (UniProt P06746); assay: qHTS Assay for Inhibitors of DNA Polymerase Beta; conditions: Pol beta primer extension/strand displacement, fluorescence kinetic; activity change, negative = inhibition: at 114 µM (top of the series)
Outline: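 Reaction started by 50 nM substrate onto compound-treated Pol beta (10 nM, 15 min preincubation, room temperature); plates read at 0 min and 10 min. Normalized concentration-effect data fitted by four-parameter Hill equation.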
% is scaled to controls: 0 for no effect and ±100 for the full control effect; potency is read from the fitted curve at half-maximal effect.

Potency, active:
COc1ccc(C(CC(=O)N2CCCCC2)c2c(OC)cc(OC)c3c(-c4ccccc4)cc(=O)oc23)cc1 (stereo not given) 25.1 µM, COc1cccc(/C=N/NC(=O)c2[nH]nc3c2CCc2ccccc2-3)c1O 8.91 µM, COc1cc(/C=N/NC(=O)c2ccc(CSc3nc4ccccc4[nH]3)cc2)cc(OC)c1OC 10 µM, N#Cc1cc(C(=O)c2cc(F)ccc2O)cn(-c2nccs2)c1=O 17.8 µM, COc1ccc(C(=O)CSc2nnc(-c3ccco3)c(-c3ccco3)n2)cc1 12.6 µM, O=C(NC1CCC(O)CC1)c1cc(-c2ccco2)nc2ccccc12 (stereo not given) 12.6 µM, O=c1cc2nc(-c3ccccc3F)nc(SCc3ccc(Br)cc3)n2[nH]1 31.6 µM

Potency, inactive:
Cc1ccc(NC(=O)CSC(N)=O)cc1Cl, Cc1noc(C)c1C(=O)Nc1nccs1, Cc1ccc(CSc2nc3cccnc3n2Cc2nc(-c3ccccc3F)oc2C)cc1, COc1ccc(/C=C2/Sc3ccc(C(=O)N4CCOCC4)cc3NC2=O)cc1OC, CCC1CCCCN1C(=O)CSc1nc(-c2ccc(OC)cc2)cc(C(F)(F)F)n1 (stereo not given), CCc1ccc(CNC(=O)c2ccc(NC(=O)N3CCSc4ncccc43)cc2)cc1, CC1CCN(c2nn3c(=O)c(C(=O)NCCc4ccc(Cl)cc4)cnc3s2)CC1, CCN(CC)C(=O)COC(=O)c1cc(-c2ccc(OC)cc2)nc2ccccc12, O=C(CN1C(=O)COc2ccc(S(=O)(=O)N3CCCC3)cc21)NCCc1ccc(Cl)cc1, O=C(O)c1cc(N/N=C/c2cccc3ccccc23)ccc1Cl, COc1ccc(CCNC(=O)Cn2c(=O)nc(-c3ccccc3F)c3cc(Cl)ccc32)cc1OC, Cn1c(CC(=O)Nc2ccccc2)nnc1SCCOc1ccccc1

Potency, inconclusive:
Cc1ccc(S(=O)(=O)NCC(=O)NCC(=O)N2CCN(c3ncccn3)CC2)cc1C 0.158 µM [inhibitor, full curve], O=C(O)CNC(=O)/C=C/c1c(Cl)cccc1Cl 1 µM [inhibitor, full curve, poor fit], C=CCn1c(CCC(=O)O)ccc1-c1ccc(OC)cc1 1.58 µM [inhibitor, full curve], CN(C)/C=C(/C(=O)c1ccc(Cl)cc1Cl)S(=O)(=O)c1ccc(Cl)cc1 0.282 µM [inhibitor, full curve, poor fit], Cc1cc(C)c(S(=O)(=O)Nc2ccc(-c3ccc(N4CCCCC4)nn3)cc2)cc1C 56.2 µM [inhibitor, partial curve, poor fit], O=C(c1ccc2c3c(cccc13)CC2)C1CCCN(C(=O)c2ccc(=O)[nH]c2)C1 (stereo not given) 63.1 µM [inhibitor, single point], CSCCC1NC2(C(=O)Nc3c(Cl)cccc32)[C@@H]2C(=O)N(C3CCCC3)C(=O)[C@H]12 (stereo not given in full) 17.8 µM [inhibitor, full curve], O=c1c2cc3c(=O)n(-c4ccccc4O)c(=O)c3cc2c(=O)n1-c1ccccc1O 3.98 µM [inhibitor, partial curve, poor fit], O=C(N/N=C\c1c[nH]c2ccccc12)c1ccc(O)cc1 31.6 µM [inhibitor, partial curve], Cc1cccc(NC(=O)CSc2nc3ccccc3nc2N2CC(C)OC(C)C2)c1 (stereo not given) 0.141 µM [inhibitor, full curve, poor fit], CCCCN1CCCCC1C(=O)Nc1c(C)cc(C)cc1C (stereo not given) 39.8 µM [inhibitor, single point], O=C(c1cccnc1)N1CCCc2ccccc21 89.1 µM [inhibitor, single point], CCn1cc2nc(SCC(=O)Nc3cccc(Cl)c3C)n(Cc3ccc(Cl)cc3)c(=O)c2n1 10 µM [inhibitor, full curve, poor fit], O=C(CSc1nc2ccc(Cl)cc2o1)NCc1ccc2c(c1)OCO2 3.16 µM [inhibitor, full curve, poor fit], COc1ccc(C2N(c3ccccc3)C(=O)C2(F)F)cc1OC (stereo not given) 28.2 µM [inhibitor, single point], Cc1ccc(SCC(=O)Nc2ccc3oc(-c4ccc(F)cc4)nc3c2)cc1 50.1 µM [inhibitor, partial curve], CCCn1nnnc1NCc1ccc(N(C)C)cc1 17.8 µM [inhibitor, single point], O=C(NC1CCN(C(=S)NCc2ccco2)CC1)C12CC3CC(CC(C3)C1)C2 89.1 µM [inhibitor, single point], O=c1[nH]c2ccc(NS(=O)(=O)c3ccc(F)cc3)cc2s1 89.1 µM [inhibitor, single point], CCCC(=O)Nc1ccc(NC(=S)NC(=O)c2cccs2)cc1 35.5 µM [inhibitor, full curve], O=C(COC(=O)c1ccc([N+](=O)[O-])s1)Nc1ccc(Cl)cn1 79.4 µM [inhibitor, single point], Cc1cc(N=Nc2c(O)c3ccccc3[nH]c2=O)ccc1N=Nc1ccc(C(=O)N(C)C)cc1 35.5 µM [inhibitor, partial curve], Cc1cnc(CN2CCc3c([nH]c4ccccc34)C2C2CCCCC2)[nH]1 (stereo not given) 79.4 µM [inhibitor, single point]

Activity change, negative = inhibition, inconclusive:
O=C(O)c1cccc(CSc2nc(-c3ccc(Cl)cc3)cc(C(F)(F)F)n2)c1 -69.3% [inhibitor], O=C(CSc1nc2ccccc2o1)N/N=C/c1ccc(O)c(O)c1 -109% [inhibitor], Cc1cccc2cc(/C=N/Nc3ccc(C(=O)O)cc3)c(Cl)nc12 -40.7% [inhibitor]
